The results in this text go back to patent US20230235075A1.

The chains behind the UniProt entries cited, without tags or fusion partners. Where a name states a change or a piece, a line headed by the entry shows the natural chain unless it says otherwise. Residues count along the entry.
UniProt Q9NPY3, residues 22-580: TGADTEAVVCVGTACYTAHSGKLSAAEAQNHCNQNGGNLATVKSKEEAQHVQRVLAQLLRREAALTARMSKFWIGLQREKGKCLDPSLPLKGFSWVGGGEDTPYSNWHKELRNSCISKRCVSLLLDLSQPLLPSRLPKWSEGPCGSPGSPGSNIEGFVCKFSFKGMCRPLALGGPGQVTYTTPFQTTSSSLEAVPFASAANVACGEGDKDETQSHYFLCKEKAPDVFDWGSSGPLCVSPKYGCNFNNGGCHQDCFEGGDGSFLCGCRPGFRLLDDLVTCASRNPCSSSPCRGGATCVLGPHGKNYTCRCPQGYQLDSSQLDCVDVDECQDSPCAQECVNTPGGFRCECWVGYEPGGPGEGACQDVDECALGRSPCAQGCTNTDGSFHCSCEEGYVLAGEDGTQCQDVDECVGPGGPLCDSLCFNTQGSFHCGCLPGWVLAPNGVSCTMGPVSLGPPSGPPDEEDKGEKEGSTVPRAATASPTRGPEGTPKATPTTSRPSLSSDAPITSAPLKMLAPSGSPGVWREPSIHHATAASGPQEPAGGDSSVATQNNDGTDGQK

This assay concerns the target Human CD93 recombinant protein (Sino Biological Inc, Catalog #12589-H08H) (human) (UniProt Q9NPY3). Kind of assay: ELISA, His-tagged human CD93 coated at 1 µg/mL, anti-mouse Fc HRP.

No constants are given. Whether binding was seen depends on the method and setting. Some results given as binding are weak or reduced against the parent protein; the word gives no strength.

B1: mouse MMRN2-mFc (Fc fusion, UniProt A6H6E2 23-943, looked up, not shown: a dimerising Fc or GST)
chain: QDPGTKFSHLNRPGMPEGWRLGAEDTSRDPIRRNWCPYQKSRLVTFVAACKTEKFLVHSQQPCPQGAPDCQGVRVMYRVAQKPVYQVQQKVLISVDWRCCPGFQGPDCQDHNPTANPEPTEPSGKLQETWDSMDGFELGHPVPEFNEIKVPQEQQENLLQNLQNDAQSVEDGFPGSWEAPPSNLTDEMTEANLTEFEFPGRTSEHLLQPHIDAFLKAHFSPIWKNFNDSLHSLSQAIRNLSLDVEANHQAIKMIQEGTVARADFQELGAKFEAKVQQNSQRLGQLWQDVEDQLHAQRRSVHHALSDVQAEVSTKLKQLVKAQELPGANGSLVMASAAAAARPEPESLQARLGQLQRNLSALHMVTSQREEELQSTLKNMDSVLKQHAEEIKELYSESDETFDQISKVERQVEELLVNHTGLRELRVILMEKSLIMEENKEEIERQLLELNLTLQHLHAGHADLIKYVKDCNCQRVNSDVDVAPEGHRDVMHTLEETQVSLDEQHQLDGSSLQALQSTVDAMSSAMDAYRGEGERARAERARIRSQLRALDHAVEALKTAANGTRKEIRLLHGSFTALLEDALRHQAVLAALFGEEMIDEMSEEAPRPLPLDYEQIRLALQDAASGLQEQAIGWEDLATRVEALEKAAGGFVEQHPQLAEGLEPSHDSGREEEAMTLAELEQEIRRLSSDVKQIGQCCEASWAASLNSSLEDLHSMLLDTQHGLRQHRQLFHNLFQNFQGLVASNISLDLGKLQAMLSKKDKKQPRGPGESRKRDKKQVVMSTDAHAKGLELWETGSPVAFYAGSSEGATALQMVKFNTTSINVGSSYFPEHGYFRAPKRGVYLFAVSITFGPGPGMGQLVFEGHHRVPVYSTEQRGGSTATTFAMVELQKGERAWFELIQGSATKGSQPGTAFGGFLMFKT
Turning to B1, the binding result was “binds”.
